Data from patent US10668094B2, “Selective inhibitors of Alpha2-containing isoforms of Na,K-ATPase and use thereof for reduction of intraocular pressure” (Yeda Research and Development Co. Ltd., priority 2015, dated 2020).

System: Na,K-ATPase in bovine ciliary NPE cells
Type: biochemical

CC1CN(C2CCC2)CCC(O[C@@H]2[C@H](C)O[C@@H](O[C@@H]3[C@H](C)O[C@@H](O[C@H]4CC[C@@]5(C)C(CCC6C5C[C@H](O)[C@]5(C)[C@@H](C7=CC(=O)OC7)CC[C@]65O)C4)C[C@@H]3O)C[C@@H]2O)O1 (stereo partly shown) [DcB]
A α1 (2 sites model, fraction of α1 site): 0.34 ± 0.097 | A α2 (2 sites model, fraction of α2 site): 0.66 ± 0.090 | best fit proportion α1 (two site model): 34% | best fit proportion α2 (two site model): 66%
